Measured values as given in patent US20100323062A1, “BIOPROCESSING OF GRAINS” (GRAIN FOODS CRC LTD, priority 2006, published 2010).

Columns and labels:
[1] = tested on: wheat; test: Flour yield over many observations using ABA at different concentrations
[2] = tested on: Wheat cv. Wedgetail; test: Laboratory Buhler test mill milling after conditioning with plant hormones; conditions: hormone 1.5 mg/kg crop kernel
[3] = nominal conditioning time 12 hours
[4] = nominal conditioning time 16 hours
[5] = nominal conditioning time 20 hours
[6] = nominal conditioning time 24 hours

Compound | flour yield versus control ([1]; 1 mg/kg crop kernel) | flour yield versus control ([1]; 2 mg ABA per kg crop kernel, wheat sample 2 kg or 5 kg) | flour yield versus control ([1]; 4 mg/kg crop kernel) | Flour Yield (%) [2, 3] | Flour Yield (%) [2, 4] | Flour Yield (%) [2, 5] | Flour Yield (%) [2, 6]
CC1=CC(=O)CC(C)(C)C1(O)/C=C/C(C)=C\C(=O)O (stereo not drawn) [ABA, absicisic acid] | No increase in flour yield | flour yield increases | flour yield increased | 78.6% | 78.4% | 78.0% | 78.4%
C=C1C[C@]23C[C@@]1(O)CC[C@H]2[C@@]12C=C[C@H](O)[C@@](C)(C(=O)O1)[C@H]2[C@@H]3C(=O)O [GA3, gibberellic acid] |  |  |  | 77.9% | 78.3% | 78.1% | 78.0%
indole acetic acid [IAA] |  |  |  | 78.2% | 78.1% | 77.9% | 78.3%
